Screening data, single-dose tests

Amino acid sequences for entries named in this document (tags omitted). Residues count along the entry.
UniProt A4I591, 1-473: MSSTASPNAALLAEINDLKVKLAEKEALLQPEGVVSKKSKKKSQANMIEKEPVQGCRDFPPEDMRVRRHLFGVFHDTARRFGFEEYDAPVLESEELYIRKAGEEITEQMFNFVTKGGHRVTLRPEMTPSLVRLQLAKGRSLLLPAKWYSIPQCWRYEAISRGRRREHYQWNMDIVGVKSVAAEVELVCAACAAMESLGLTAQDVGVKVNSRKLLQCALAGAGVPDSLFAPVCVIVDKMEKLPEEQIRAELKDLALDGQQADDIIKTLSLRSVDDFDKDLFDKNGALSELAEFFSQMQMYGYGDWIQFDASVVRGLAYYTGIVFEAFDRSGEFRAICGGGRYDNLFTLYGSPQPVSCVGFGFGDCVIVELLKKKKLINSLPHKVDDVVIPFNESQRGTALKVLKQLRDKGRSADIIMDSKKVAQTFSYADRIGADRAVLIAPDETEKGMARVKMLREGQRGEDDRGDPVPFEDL

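Histidine-tRNA ligase, Leishmania infantum (UniProt A4I591). Enzyme assay of histidyl-tRNA synthetase; the read-out is not stated. Concentration: 30 µM. The record gives no direction; compounds that gave an IC50 in retests scored well above the rest, so higher reads as stronger inhibition. The assay is labelled LdHisRS but filed under L. infantum. Size under these conditions: about 69,000 compounds, about 410 of them at 50% or above in at least one test.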

Values are the deposited “Percent Effect”, in %.
The controls that fix the scale are not given in the record; negative values are as filed.
This is an unselected part of the compounds tested.

structure: CC(C)[C@H]1COC(=O)N1CC(=O)N(C)CCCn1cccn1
effect: 8.547

structure: CN1C(=O)CCC12CCN(Cc1ccco1)CC2
effect: 3.846

structure: CN(C)S(=O)(=O)c1ccc(OCCNCCn2cccn2)cc1
effect: 0

structure: CC(C)(C)c1nc(CN2CCCC2Cn2cncn2)no1 (stereo unspecified)
effect: 15.65

structure: CNCC(=O)N1CCCC1c1cncc(Oc2ccc(F)cc2)n1 (stereo unspecified)
effect: 20.62

structure: Cc1ccc(-c2nc(CCNC(=O)NCC(C)(C)C(N)=O)co2)cc1
effect: 10.34

structure: Cc1c(C2N3C[C@]4(C(C)C)CN2C[C@](C(C)C)(C3)C4=O)[nH]c(=O)[nH]c1=O (stereo partly specified)
effect: 8.696

structure: COCc1nc(N(C)C)ncc1C(=O)Nc1ccn(C)n1
effect: 7.767

structure: CCC(C)CS(=O)(=O)NC(=O)C1CC1 (stereo unspecified)
effect: 18.31

structure: CC(CNC(=O)c1cn(-c2ccccc2)nn1)Cn1cccn1 (stereo unspecified)
effect: -5.263

structure: Cn1cccc1-c1cc(C(=O)N2CCCCC2c2ccc(F)cc2)[nH]n1 (stereo unspecified)
effect: 25

structure: COc1c(C2CCCN2C(=O)c2ccnc(N(C)C)c2)c(C)nn1C (stereo unspecified)
effect: 5.333

structure: CNS(=O)(=O)c1cccc(CNc2ccc(C#N)cn2)c1
effect: 11.11

structure: CN1CCN(c2nsc(-c3ccccc3)c2C#N)CC1
effect: 23.89

structure: COCC(C)NC(=O)N1CCN(S(C)(=O)=O)CC1 (stereo unspecified)
effect: 5

structure: NC(=O)Cn1cc(NC(=O)N2CCN(c3ccc(F)cc3)CC2)cn1
effect: 0

structure: CCc1nccn1C1CCCN(C(=O)COCC(F)(F)F)C1 (stereo unspecified)
effect: 7.339

structure: CCc1nc(CCNC(=O)NC2CCC(=O)N(C)C2)sc1C (stereo unspecified)
effect: -84.85

structure: CCC(O)CN1CCN(C(=O)CCc2c(C)noc2Cl)CC1 (stereo unspecified)
effect: 14.91

structure: CCN(CC)c1ncc(CNC2CCc3nc(C(C)C)nn3C2)s1 (stereo unspecified)
effect: -1.042

structure: O=C(c1cccnc1N1CCOC(c2ccc(Cl)cc2)C1)N1CCCC1 (stereo unspecified)
effect: 11.43

structure: OCCC[C@@H]1CN(c2ncc(Cl)cc2Cl)CC[C@@H]1N1CCOCC1
effect: 5.208

structure: Cc1ccc(CN2CCCn3cnc(COCC4CC4)c3C2)o1
effect: 33.33

structure: CS(=O)(=O)N1CCC2(COCc3cnc(-c4ccccc4)nc32)C1 (stereo unspecified)
effect: 28.77

structure: Cc1nn(C)c(C)c1-c1ccnc(N2CCCN(CC(C)C)CC2)n1
effect: 26.6

structure: CC(C)(C)c1cn(C[C@H]2CC3CCN2C[C@@H]3C(=O)NC2CC2)nn1 (stereo partly specified)
effect: 17.57

structure: CSc1ccc(C(=O)N2CC(=O)N(Cc3ccccc3)CC(O)C2)cc1 (stereo unspecified)
effect: 6.122

structure: Cc1ccc(OCC(O)CN2CCC(Cn3cc(C)cn3)CC2)cc1 (stereo unspecified)
effect: 8.547

structure: NS(=O)(=O)c1cnn(-c2ccc(NC(=O)CC3CCCC3)cn2)c1
effect: 11.9

structure: Cc1ncsc1CN1CCn2c(COc3cccnc3)cnc2C1C (stereo unspecified)
effect: 15.79

structure: O=C(NCCN1CCCC1)C1(c2ccc(Cl)cc2)CCOCC1
effect: 19.44

structure: Cc1cnc(N2CC3(CCN(Cc4cccnc4)C3)C2)nc1
effect: -23.08

structure: CO[C@H]1C[C@@H](O)C12CCN(C(=O)NCc1ccco1)CC2
effect: 10.62

structure: O=C(O)[C@H]1C[C@H](C(=O)NCc2ccncc2)CN(CCC(F)(F)F)C1
effect: 9.333

structure: CCOc1ccccc1C(=O)NC(CC(=O)O)c1cccs1 (stereo unspecified)
effect: 2.609

structure: CCN1CCC2(CC1)C(=O)Nc1ccc(C(=O)NC)cc12
effect: 18.06

structure: CCOc1ccc(C#N)cc1NC(=O)N1CCCC(NC(=O)CC)C1 (stereo unspecified)
effect: -8.219

structure: c1ccc2oc(CCCN3CCOC(Cn4cncn4)C3)nc2c1 (stereo unspecified)
effect: 4.425

structure: CCN(CC)S(=O)(=O)NCc1ccc(-c2ccc(C(N)=O)c(C)n2)cc1
effect: 5.714

structure: NC(=O)CN1CCC(OCc2ccc(Cl)c(Cl)c2)CC1
effect: 16.67

structure: CC1CN=C(N2CCN(C(=O)Nc3nc(-c4ccccc4)ns3)CC2)S1 (stereo unspecified)
effect: 1.887

structure: CC(C)N(CCO)C(=O)C1CCC(=O)N(Cc2ccc(Cl)cc2)C1 (stereo unspecified)
effect: -1.333

structure: CCc1nnc(CN(CC)C(=O)C(C)n2ccnc2C(C)C)o1 (stereo unspecified)
effect: 6.993

structure: COCCNC(=O)CSCc1nc(O)c2cc(C(C)C)sc2n1
effect: 16.67

structure: N#Cc1ccnc(N2CCC(NCCN3CCOCC3)CC2)c1
effect: 19.78

structure: NC1CCN(S(=O)(=O)c2ccc(C(=O)N3CCSCC3)cc2)C1 (stereo unspecified)
effect: 12.09

structure: Cc1nnc(NC(=O)CN2CCOC(Cn3cccn3)C2)s1 (stereo unspecified)
effect: 9.917

structure: COc1ccc(CNC(C)c2ccccc2Cl)c(OC)c1OC (stereo unspecified)
effect: 4.464

structure: c1cc(CN2CCN(Cc3cscn3)CC2)cs1
effect: 13.33

structure: O=C(Cc1ccccc1F)NCCN1CCOCC1
effect: 7.692

structure: COC(=O)C1CN(Cc2ccn(-c3ccc(F)cc3)n2)C[C@@H](C)O1 (stereo partly specified)
effect: 9.804

The first 3 entries again:

structure	effect
CC(C)[C@H]1COC(=O)N1CC(=O)N(C)CCCn1cccn1	8.547
CN1C(=O)CCC12CCN(Cc1ccco1)CC2	3.846
CN(C)S(=O)(=O)c1ccc(OCCNCCn2cccn2)cc1	0

From ChEMBL document CHEMBL3988442, “University of Dundee, Small-Polar-MMV Screening Library” (2021).